Taken from: PubChem BioAssay AID504791 (Drosophila RNAi Screening Center, 2011)
In all, the deposit lists about 23,000 reagents; this is an unselected part of those with a known target gene and a result. In the full data, 199 (0.86%) are marked active. 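Plate-scaled ratios behind the calls are not deposited; printed light signals are raw; many rows marked increased or decreased are still called inactive.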 Names joined by + are all predicted targets of the reagent. No sequences are given here. Not stated in the record: the direction of the score.

Aim: 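Factors in Argonaute-based small RNA production and activity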 (primary screen)
Cell system: Drosophila S2-derived reporter cells
Reagents: long dsRNA against Drosophila genes, about 150-250 ng dsRNA per well (siRNA assay); about 80-120 ng (miRNA assay)
Duration: about 5 days (siRNA assay); about 4 days (miRNA assay)
Challenge: copper sulfate induction of reporters: 25 µM (siRNA assay); 200 mM stated (miRNA assay), 1-2 days before reading
Detection: 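Per-well ratio of Renilla over firefly light, expressed relative to that plate's average ratio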
Active means: 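First-pass picks had plate-scaled ratios over 1.5 for the siRNA assay, over 1.6 for the miRNA assay, or under 0.6; two distinct dsRNAs had to score alike on retest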

| gene | amplicon | stable assay Renilla, run 1 (luminescence) | stable assay firefly, run 1 (luminescence) | call |
| --- | --- | --- | --- | --- |
| Cyp313a3 | DRSC16626 | 6038 | 3.54e5 | inactive |
| CG42685 | DRSC01971 | 5155 | 3.80e5 | inactive |
| Fas3 | DRSC01638 | 6856 | 5.51e5 | inactive |
| Fas3 | DRSC03326 | 7291 | 4.89e5 | inactive |
| Fas3 | DRSC22776 | 3888 | 3.25e5 | inactive |
| Rap2l | DRSC04646 | 6827 | 4.88e5 | inactive |
| yellow-h | DRSC17141 | 6935 | 4.49e5 | inactive |
| CG10359 | DRSC08156 | 8370 | 4.51e5 | inactive |
| Reepl1 | DRSC19418 | 5559 | 5.17e5 | inactive |
| CG7990 | DRSC19296 | 3467 | 3.26e5 | inactive |
| CG7990 | DRSC20069 | 5750 | 2.83e5 | inactive |
| CG7990 | DRSC23195 | 1212 | 58164 | inactive |
| Ctr1B + Poxm | DRSC16245 | 7386 | 4.00e5 | inactive |
| CG1889 | DRSC18195 | 6662 | 3.59e5 | inactive |
| Vsx1 | DRSC18349 | 3676 | 2.32e5 | inactive |
| Vsx1 | DRSC18350 | 4200 | 1.76e5 | inactive |
| Vsx1 | DRSC23004 | 3636 | 2.78e5 | inactive |
| Wee1 | DRSC03635 | 7478 | 4.26e5 | inactive |
| Wee1 | DRSC23318 | 5207 | 3.04e5 | inactive |
| LTV1 | DRSC05951 | 7520 | 3.75e5 | inactive |
| CR13656 | DRSC13705 | 6095 | 5.26e5 | inactive |
| CR13656 | DRSC14656 | 7843 | 3.27e5 | inactive |
| prt | DRSC16894 | 6002 | 3.19e5 | inactive |
| CG10352 | DRSC19353 | 6326 | 5.85e5 | inactive |

Sorted by “stable assay Renilla, run 1 (luminescence)” (lowest first): 4 of the entries above
| gene | amplicon | stable assay Renilla, run 1 (luminescence) | stable assay firefly, run 1 (luminescence) | call |
| --- | --- | --- | --- | --- |
| Reepl1 | DRSC19418 | 5559 | 5.17e5 | inactive |
| Rap2l | DRSC04646 | 6827 | 4.88e5 | inactive |
| yellow-h | DRSC17141 | 6935 | 4.49e5 | inactive |
| CG10359 | DRSC08156 | 8370 | 4.51e5 | inactive |

More reagents follow:
| gene | amplicon | stable assay Renilla, run 1 (luminescence) | stable assay firefly, run 1 (luminescence) | call |
| --- | --- | --- | --- | --- |
| CG34331 | DRSC20679 | 5647 | 4.52e5 | inactive |
| cwo | DRSC17072 | 7210 | 5.17e5 | inactive |
| CG2291 | DRSC06836 | 8023 | 5.93e5 | inactive |
| Act87E | DRSC22578 | 4283 | 3.88e5 | inactive |
| CG42818 + Ca-Ma2d | DRSC01963 | 7022 | 3.60e5 | inactive |
| mys | DRSC18799 | 4807 | 3.16e5 | inactive |
| Epg5 | DRSC14778 | 7823 | 4.12e5 | inactive |
| Cap-H2 | DRSC14908 | 6651 | 3.87e5 | inactive |
| CG10948 | DRSC09806 | 7782 | 5.42e5 | inactive |
| CROT | DRSC14518 | 8197 | 4.86e5 | inactive |
| CROT | DRSC14519 | 6270 | 4.39e5 | inactive |
| Pp2B-14D | DRSC20270 | 4755 | 4.17e5 | inactive |
| Pp2B-14D | DRSC23315 | 5079 | 3.73e5 | inactive |
| Gli | DRSC03332 | 6994 | 3.80e5 | inactive |
| CG6294 + CG6299 | DRSC19980 | 5463 | 4.93e5 | inactive |
| Ing3 | DRSC20002 | 5119 | 3.87e5 | inactive |
| CG32305 | DRSC08614 | 6458 | 3.53e5 | inactive |
| CG12010 | DRSC08218 | 6138 | 3.38e5 | inactive |
| Ktch | DRSC15094 | 5207 | 3.61e5 | inactive |
| CG32281 | DRSC08236 | 7127 | 4.25e5 | inactive |
| fus | DRSC05569 | 6074 | 4.33e5 | inactive |
| fus | DRSC07107 | 11794 | 5.14e5 | inactive |
| CG34427 | DRSC09978 | 6011 | 3.97e5 | inactive |
| CG6980 | DRSC16162 | 7030 | 3.39e5 | inactive |
| geko | DRSC10044 | 7771 | 3.41e5 | inactive |
| geko | DRSC10045 | 6360 | 3.31e5 | inactive |
| Stt3A | DRSC20514 | 7919 | 4.16e5 | inactive |
| CG17292 | DRSC02594 | 12704 | 1.00e6 | inactive |
| CG6769 | DRSC20006 | 7766 | 4.90e5 | inactive |
| Atac3 | DRSC08579 | 6411 | 3.59e5 | inactive |
| CG31784 | DRSC01574 | 4463 | 2.76e5 | inactive |
| CG42327 | DRSC14936 | 5794 | 2.69e5 | inactive |
| CG42327 | DRSC14937 | 6946 | 4.21e5 | inactive |
| CG42327 | DRSC23337 | 6446 | 4.53e5 | inactive |
